Experimental data as given in PubChem BioAssay AID1487 (National Center for Advancing Translational Sciences (NCATS), 2009).
The list shows a part of the results. Further columns of the screen follow, without active or inactive calls. The list favours compounds with an active or inconclusive main result. The note in brackets gives the kind of curve behind each potency; many fits are weak.

Assay: qHTS Assay for Modulators of Lamin A Splicing
Settings: HeLa LMNA splicing GFP/RFP minigene ratio, 48 h
How it was run: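 S3 HeLa cells stably expressing lamin A-EGFP splicing minigene plus DsRed2, 600 cells/well, 48 h compound exposure at 37C. Laser-scanning cytometry; analysed as GFP (500-530 nm)/RFP (575-640 nm) total intensity ratio; 0.5% DMSO vehicle.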

[1] = measured here: GFP splicing reporter channel
[2] = measured here: RFP viability control channel

SMILES	AC50 [1]	AC50 [2]
O=c1c(-c2ccc(Cl)cc2)nc2cnc(N3CCNCC3)nc2n1-c1ccccc1	17.8 µM [falling, partial curve]	12.6 µM [falling, partial curve]
CSC(=S)N/N=C/c1ccccc1	0.355 µM [rising, full curve, poor fit]	4.47 µM [rising, partial curve]
Cn1c(N/N=C/c2cc3ccccc3nc2Cl)nc2ccccc21	–	4.47 µM [rising, full curve]
N#Cc1cc2c(nc1SCC1COc3ccccc3O1)CCC2 (stereo not given)	11.2 µM [rising, single point]	14.1 µM [rising, single point]
CN1/C(=C\C(=O)CSc2ncn[nH]2)C(C)(C)c2ccccc21	17.8 µM [rising, single point]	35.5 µM [rising, single point]
Cc1ccc(NC(=O)C(=O)NC(C)C2COc3ccccc3O2)cc1 (stereo not given)	–	20 µM [falling, single point]
S=c1[nH]nc(Cn2nnc3ccccc32)n1-c1ccccc1	5.01 µM [rising, partial curve, poor fit]	2.82 µM [rising, partial curve]
Cc1cc(C(=O)NCC2COc3ccccc3O2)c2ccccc2n1 (stereo not given)	25.1 µM [falling, partial curve, poor fit]	0.00447 µM [falling, full curve, poor fit]
CCN1CCCC1CNC(=O)c1ccc(Sc2ccccc2Cl)c([N+](=O)[O-])c1 (stereo not given)	35.5 µM [rising, single point]	35.5 µM [rising, single point]
Cc1sc2ncnc(NCCN3CCOCC3)c2c1C	–	14.1 µM [rising, single point]
O=C(CCc1ccc(CCC(=O)c2cccs2)s1)c1cccs1	–	35.5 µM [rising, single point]
CC(=O)c1sc(Nc2nc3cc4c(cc3s2)OCO4)nc1C	–	5.01 µM [rising, full curve, poor fit]
Cc1c(Cl)cccc1NC(=O)c1oc2ccc(S(=O)(=O)N3CCCCCC3)cc2c1C	0.0708 µM [falling, partial curve, poor fit]	0.00316 µM [falling, full curve, poor fit]
Cc1sc2ncnc(N3CCN(CCOc4ccc(Cl)cc4)CC3)c2c1C	–	5.01 µM [rising, partial curve]
N#CC1=C(N)Oc2cc(O)ccc2C1C1CCCCC1 (stereo not given)	35.5 µM [rising, single point]	25.1 µM [rising, single point]
CCOc1ccc(C2C(=O)N(C3CCCCCC3)CC(=O)N2Cc2ccc(C)cc2)cc1OC (stereo not given)	–	0.631 µM [falling, full curve, poor fit]
O=C(Nc1nc2ccccc2s1)C1CCCN1S(=O)(=O)c1ccc(Cl)cc1 (stereo not given)	15.8 µM [rising, single point]	15.8 µM [rising, partial curve]

Two of the compounds above, as labelled records:
Cn1c(N/N=C/c2cc3ccccc3nc2Cl)nc2ccccc21
  AC50 [2]: 4.47 µM [rising, full curve]
Cc1cc(C(=O)NCC2COc3ccccc3O2)c2ccccc2n1 (stereo not given)
  AC50 [1]: 25.1 µM [falling, partial curve, poor fit]; AC50 [2]: 0.00447 µM [falling, full curve, poor fit]

The listing continues:

SMILES	AC50 [1]	AC50 [2]
COc1ccc(C(=O)c2ccccc2)c(O)c1	0.000891 µM [falling, full curve, poor fit]	35.5 µM [rising, single point]
CCN(CC)C(=O)N(CC)Cc1ccccc1	0.0282 µM [falling, full curve, poor fit]	2.82 µM [falling, single point]
c1ccc(COC2CCCN(Cc3nc(Cc4ccccc4)no3)C2)cc1 (stereo not given)	–	35.5 µM [rising, single point]
O=C(Nc1cccc(S(=O)(=O)N2CCOCC2)c1)c1ccc2c(=O)n3c(nc2c1)CCCCC3	0.562 µM [rising, full curve, poor fit]	2.24 µM [rising, partial curve, poor fit]
C[N+](C)(CCCOc1ccccc1)c1ccccc1	0.316 µM [falling, full curve, poor fit]	0.316 µM [falling, full curve, poor fit]
CO/N=C/NC(=O)Cc1cn(-c2ncc(C(F)(F)F)cc2Cl)c2ccccc12	–	22.4 µM [rising, single point]
Cc1cc(C)cc(-n2ccn(CC(=O)NCCc3ccccc3)c(=O)c2=O)c1	–	0.00447 µM [falling, full curve, poor fit]
COc1cccc(/C=N/NC(=S)Nc2cccc(C(=O)O)c2)c1O	1.26 µM [rising, single point]	–
CCN(CC)c1ccc(NC(=O)C2CC(=O)N(Cc3ccccc3)C2)cc1 (stereo not given)	–	1 µM [falling, full curve, poor fit]
COc1ccccc1NC(=O)CSc1nc2n[nH]c(C)c2c(=N)n1-c1ccccc1Cl	–	10 µM [rising, partial curve]
COc1ccc(/C(N)=N/OC(=O)CCCc2ccccc2)cc1OC	–	11.2 µM [rising, partial curve]
COc1ccc(-n2c(/C=C/c3cccc4ccccc34)nc3ccccc3c2=O)cc1OC	1 µM [falling, full curve, poor fit]	–
Cc1ccc(NC(=O)c2ccc(NCCN)c([N+](=O)[O-])c2)cc1	–	12.6 µM [rising, single point]
COc1ccc(CNC(=O)COC(=O)CCc2c[nH]c3ccccc23)cc1	35.5 µM [rising, single point]	–
Cc1cc(C)n(-c2ccc(C(=O)Nc3ccc(S(=O)(=O)N(C)C)cc3)cc2)n1	20 µM [rising, partial curve, poor fit]	15.8 µM [rising, partial curve]
COc1ccc(CCN(C)c2ccc(S(=O)(=O)N3CCCC3)cc2[N+](=O)[O-])cc1OC	12.6 µM [rising, single point]	22.4 µM [rising, single point]
O=C1/C(=C\c2cccs2)SC(=S)N1C1CCS(=O)(=O)C1 (stereo not given)	11.2 µM [falling, single point]	–
